# Measured values published in patent US8835377B2, “Oral delivery of peptide pharmaceutical compositions” (UGP Therapeutics, Inc., priority 2004, dated 2014).
# Not every detail of the peptide structures is certain; ends, links or a residue may be inferred. At least one read-out could not be matched to a standard name with certainty.
# Assay: Pharmacokinetics after oral capsules (sCT plus Dmt-DALDA with citric acid and lauroyl carnitine), non-enteric coated or enteric coated, in fasted beagle dogs (plasma; ELISA for sCT, HPLC-MS for Dmt-DALDA)
# Assay type: in vivo
# Conditions: both enteric coated and non-coated capsules
# Protocol: A second series of tests was carried out, as noted above, using beagle dogs. […] In the experiments represented in FIGS. 2A and 2B, size 00 […] capsules were each filled with 758 mg of a powdered blend consisting of citric acid (643 mg), lauroyl carnitine (66 mg), talc (33 mg), salmon calcitonin (sCT) (13 mg) and Dmt-DALDA (2.4 mg). Half of the capsules were coated with an enteric coating solution of L30D-55, while the remaining 50% of the capsules were not coated. Four fasted dogs were each given 1 uncoated capsule, and 2 weeks later they were each given an enteric coated capsule. After administration of each capsule, samples of blood were taken at 15 minute intervals from an indwelling catheter for up to 4 hours. The blood samples were centrifuged and the resulting plasma supernatants were stored frozen at −20° C. The plasma samples were subsequently analyzed for sCT by a direct ELISA, and for Dmt-DALDA by HPLC-mass spectrometry performed as set forth in Wan, H. and Desiderio, D., Quantitation of [DMT^1] […]
# The results summarized in FIGS. 2A and 2B as plasma peptide concentration normalized to a 1 mg dose as a function of time relative to the average Tmax, (i.e., the time at which the maximum amount of peptide was detected) indicate that both peptides, i.e., sCT and Dmt-DALDA, were detected in dogs given uncoated or enteric coated capsules. […]
smiles,measurement,value
"Cc1cc(O)cc(C)c1C[C@H](N)C(=O)N[C@H](CCCNC(=N)N)C(=O)N[C@@H](Cc1ccccc1)C(=O)N[C@@H](CCCCN)C(N)=O [Dmt-DALDA, H-2,6-dimethyltyrosine-D-Arginine-Phenylalanine-Lysine-NH2]",bioavailability compared with sCT,better than that of sCT
